Data as given in PMC12518853.
No constants are given. Whether binding was seen depends on the method and setting. Binding seen in cells or lysates may run through a third protein. One block for each molecule: values may come before it.

Protein sequences, listed by entry. Tags and fused reporters are not part of them. Residues count along the entry.
UniProt P13597, residues 28-537: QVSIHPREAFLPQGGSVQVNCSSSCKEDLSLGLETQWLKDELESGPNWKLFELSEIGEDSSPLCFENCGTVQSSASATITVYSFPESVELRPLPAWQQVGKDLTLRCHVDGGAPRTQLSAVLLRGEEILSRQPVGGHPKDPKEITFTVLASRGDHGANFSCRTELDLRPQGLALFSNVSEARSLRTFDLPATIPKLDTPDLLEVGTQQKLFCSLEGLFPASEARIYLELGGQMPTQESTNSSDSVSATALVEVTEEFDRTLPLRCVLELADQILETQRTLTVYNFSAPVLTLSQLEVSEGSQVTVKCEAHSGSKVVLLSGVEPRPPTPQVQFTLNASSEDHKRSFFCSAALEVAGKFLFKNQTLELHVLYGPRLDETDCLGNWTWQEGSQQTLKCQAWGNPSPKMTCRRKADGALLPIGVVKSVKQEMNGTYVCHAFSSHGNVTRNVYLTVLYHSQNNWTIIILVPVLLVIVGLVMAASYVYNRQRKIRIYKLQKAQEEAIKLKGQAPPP
UniProt Q6PHN9: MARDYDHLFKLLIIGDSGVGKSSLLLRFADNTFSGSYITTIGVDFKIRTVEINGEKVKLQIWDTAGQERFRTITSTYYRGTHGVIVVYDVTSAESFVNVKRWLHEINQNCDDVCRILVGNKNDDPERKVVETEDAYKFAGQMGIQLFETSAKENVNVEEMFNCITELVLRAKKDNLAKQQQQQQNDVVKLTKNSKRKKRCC

Molecular target: intercellular adhesion molecule 1 (ICAM1) (mouse (endogenous, cells of the co-IP not named)) (UniProt P13597)
Experiment: co-IP; Pierce MS-compatible Magnetic IP Kit; cell lysates incubated with the antibody at 4 °C overnight, then protein A/G magnetic beads for 2 h, five washes, eluate immunoblotted

binding: no binding
Molecule: Rab35 (from UniProt Q6PHN9 1-201)

binding: no binding
B1: Rab27a (protein, UniProt Q9ERI2 1-221)
chain: MSDGDYDYLIKFLALGDSGVGKTSVLYQYTDGKFNSKFITTVGIDFREKRVVYRANGPDGAVGRGQRIHLQLWDTAGQERFRSLTTAFFRDAMGFLLLFDLTNEQSFLNVRNWISQLQMHAYCENPDIVLCGNKSDLEDQRAVKEEEARELAEKYGIPYFETSAANGTNISHAIEMLLDLIMKRMERCVDKSWIPEGVVRSNGHTSADQLSEEKEKGLCGC
